PMC3998894
These are yes or no findings as the source states them, for the method shown. For part of these data: In cells and extracts the contact can be indirect. Some binding calls cover weakened binding; strength is not graded here. Sequences can lack the tags named with a protein.

T1: myc-COT-1 (N. crassa) (UniProt P38679)
T1 sequence: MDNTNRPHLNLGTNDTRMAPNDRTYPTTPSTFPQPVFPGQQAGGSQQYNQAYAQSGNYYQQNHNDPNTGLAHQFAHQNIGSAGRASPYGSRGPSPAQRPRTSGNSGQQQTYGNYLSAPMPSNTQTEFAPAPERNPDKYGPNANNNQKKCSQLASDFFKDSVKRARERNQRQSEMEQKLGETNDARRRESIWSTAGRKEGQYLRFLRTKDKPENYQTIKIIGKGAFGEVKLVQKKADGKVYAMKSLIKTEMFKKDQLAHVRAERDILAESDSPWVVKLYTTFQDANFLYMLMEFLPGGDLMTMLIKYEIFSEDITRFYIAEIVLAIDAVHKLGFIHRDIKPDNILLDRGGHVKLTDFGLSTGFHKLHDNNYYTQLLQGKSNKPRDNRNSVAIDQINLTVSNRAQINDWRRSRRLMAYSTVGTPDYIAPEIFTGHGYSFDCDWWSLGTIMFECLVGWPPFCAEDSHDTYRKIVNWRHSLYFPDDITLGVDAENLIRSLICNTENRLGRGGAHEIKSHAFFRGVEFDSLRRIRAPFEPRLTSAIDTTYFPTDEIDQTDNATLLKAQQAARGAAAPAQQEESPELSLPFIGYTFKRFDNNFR


What was measured:
myc-COT-1 (N. crassa) [1] = biological target: T1, myc-COT-1 (N. crassa); test: co-IP; displacement assay, the complex before displacement: myc-COT-1/HA-POD-6 complex precipitated from cell extracts; Western blot; mock-IP precipitate as control
myc-COT-1 (N. crassa) [2] = biological target: T1, myc-COT-1 (N. crassa); test: co-IP; cell extracts co-expressing both tagged proteins; less stringent washing than two washes with IP buffer (conditions not told); Western blot
[3] = biological target: N-terminal kinase domain of POD-6 (aa 1-412), yeast two-hybrid fusion (N. crassa) (UniProt V5IQR8); test: two-hybrid; Matchmaker Two-Hybrid system 3; Gal4 activation domain (pGADT7) and DNA-binding domain (pGBKT7) fusions co-expressed in S. cerevisiae AH109; growth on SD lacking adenine, histidine, leucine and tryptophan or on SD with 10 mM 3-amino-1,2,4-triazole lacking leucine, tryptophan and histidine

| binding (myc-COT-1 (N. crassa) [1]) | binding (myc-COT-1 (N. crassa) [2]) | binding [3] | Binder |
| --- | --- | --- | --- |
| binds | binds | – | HA-POD-6 (enzyme, UniProt V5IQR8 1-928) MATLSVYGSDFLTTTKKKAIEDAKKMQTVVAEECNKSGKEAPPYQLEELIGKGSFGRVYKATDNKSNAVVAVKIIDIEESDRENPRLADTYSEFMKETSALKLLSNSGAKNINLILDVLPVGQSMWLITEYCAGGSVATLMKPTAPGGLQEKWIIPILREVAEAIFWVHKEGIIHRDIKCANVLVTETGAVQLCDFGVAGIVETKFDKRSTFIGTPHWMAPELFEPTPSYSTPVDIWAFGSMVYEIASGLPPNVMSGFNIPQLGNYIKSHAPRLEGDQYSDNLKDLVAFCLVEDPAKRPTIEQVQRHPYIFNTSSEYPTASLSNLVRGYKVWEAQGGIRKSLFAPVGAQGPSDYASTALSNDEWNFSTTVDFDRMAMDSDAQAVYDVYGHNVDFDFDEEQTRRPKPKGRRRPPPPKLLALKAPLEKLFDPNTISGYNENSRAYYGLGPTSTSEAASAPEPPKDSDLNLRQYEPSSQAALRESLIDLDASFDGNDLSQFVDMETIKAGPRGSIDYAAFNPNPDFSKPPLSDPADMPMNINRRTQDWKFPSMAAPPASAHPEMSRFPWNEERSNDSHNDNFVRPPLIHHPTDPLGFQSTGYDSMPPKPPVDNRVSVGSLIDLDESLPMPTNDFTNREYTRPSTANSDAASVSGSEIGGANPFDLERHASLYQPLPVVRSSSVREPSIYVSDDSDYARVAQAPSEEHFIGTNGRGTPDYASSVNGGGSIGNGSIGGGSIGGGSIGSRTSSRAHSRADSYSYATDDDVGGYSAGEYAESEYLGGSMDPMAMSGEGRNRSRRRPSGMRPDPDSHHPPRGYGMGGSMNGNNGTGSHGGGHHGHQVHHGHGHGQYHGHGHGHSNSQGSTDMMHMPHVPEPPRVRVMQGMANREEVRDDVMRLLASFSEHLGFANAHVNTLPVRQGRRGSEVDTSV |
| – | – | binds | N-terminal kinase domain of POD-6 (aa 1-412), yeast two-hybrid fusion (domain or fragment, UniProt V5IQR8 1-412) MATLSVYGSDFLTTTKKKAIEDAKKMQTVVAEECNKSGKEAPPYQLEELIGKGSFGRVYKATDNKSNAVVAVKIIDIEESDRENPRLADTYSEFMKETSALKLLSNSGAKNINLILDVLPVGQSMWLITEYCAGGSVATLMKPTAPGGLQEKWIIPILREVAEAIFWVHKEGIIHRDIKCANVLVTETGAVQLCDFGVAGIVETKFDKRSTFIGTPHWMAPELFEPTPSYSTPVDIWAFGSMVYEIASGLPPNVMSGFNIPQLGNYIKSHAPRLEGDQYSDNLKDLVAFCLVEDPAKRPTIEQVQRHPYIFNTSSEYPTASLSNLVRGYKVWEAQGGIRKSLFAPVGAQGPSDYASTALSNDEWNFSTTVDFDRMAMDSDAQAVYDVYGHNVDFDFDEEQTRRPKPKGRRRP |
